This passage reports binding results from paper PMC4895218, “Structural flexibility of the periplasmic protein, FlgA, regulates flagellar P-ring assembly in Salmonella enterica” (Scientific Reports, 2016).

This experiment has as its target T1, N-terminally His-tagged FlgI (Salmonella enterica serovar Typhimurium, UniProt P15930 20-365).
T1 construct: FlgI, flagellar P-ring component protein, Salmonella enterica serovar Typhimurium; Probably without its Sec signal peptide (surmise); also called His-FlgI; source: E. coli Origami2 (DE3), co-expressed, in cell extract (pull-down); purified (SPR); not shown: His tag, N-terminal, kept
T1 sequence (looked up): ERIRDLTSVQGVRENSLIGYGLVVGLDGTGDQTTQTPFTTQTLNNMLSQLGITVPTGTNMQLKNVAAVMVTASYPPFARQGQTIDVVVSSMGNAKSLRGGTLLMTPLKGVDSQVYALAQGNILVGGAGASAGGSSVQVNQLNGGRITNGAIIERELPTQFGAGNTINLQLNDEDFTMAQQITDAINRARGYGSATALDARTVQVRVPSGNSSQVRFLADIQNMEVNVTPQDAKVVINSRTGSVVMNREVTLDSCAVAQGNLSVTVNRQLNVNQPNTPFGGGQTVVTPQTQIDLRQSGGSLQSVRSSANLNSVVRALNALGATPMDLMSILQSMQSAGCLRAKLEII
The experiment in a line: pull-down; TALON metal affinity spin column; cell extracts of E. coli Origami2 (DE3) co-expressing His-FlgI and FlgA proteins; wash 10 mM imidazole, elution 300 mM imidazole; immunoblot with antibodies against FlgA and FlgI.

These are yes or no findings as the source states them, for the method shown. In cells and extracts the contact can be indirect. Some entries that bind do so weakly or less than the wild type. Tags and fused reporters may be left off the sequences shown.

B1: FlgA (purified, histidine tag removed) (natural protein, Salmonella enterica serovar Typhimurium)
chain: QDINAQLTTWFSQRLAGFSDEVVVTLRSSPNLLPSCEQPAFSMTGSAKLWGNVNVVARCANEKRYLQVNVQATGNYVAVAAPIARGGKLTPANVTLKRGRLDQLPPRTVLDIRQIQDAVSLRDLAPGQPVQLTMIRQAWRVKAGQRVQVIANGEGFSVNAEGQAMNNAAVAQNARVRMTSGQIVSGTVDSDGNILINL
notes: FlgA, Salmonella enterica serovar Typhimurium; numbers count on: the mature protein (Q1-L198); The crystallised FlgA was another construct (C-terminal hexa-histidine-tagged precursor purified from the periplasm of E. coli); source: purified; N-terminal-fused histidine tag removed with thrombin prior to gel filtration; not shown: His tag, N-terminal, cleaved
Take B1: the binding entry is reported as “binds”.
